The supplement of paper PMC10849652
This is one part of the list.

Sequences of proteins named here, by UniProt entry; tags and fusion partners are left off. A change or cut given only in a name is not applied to a line headed by its entry.
UniProt Q01082, whole entry, looked up: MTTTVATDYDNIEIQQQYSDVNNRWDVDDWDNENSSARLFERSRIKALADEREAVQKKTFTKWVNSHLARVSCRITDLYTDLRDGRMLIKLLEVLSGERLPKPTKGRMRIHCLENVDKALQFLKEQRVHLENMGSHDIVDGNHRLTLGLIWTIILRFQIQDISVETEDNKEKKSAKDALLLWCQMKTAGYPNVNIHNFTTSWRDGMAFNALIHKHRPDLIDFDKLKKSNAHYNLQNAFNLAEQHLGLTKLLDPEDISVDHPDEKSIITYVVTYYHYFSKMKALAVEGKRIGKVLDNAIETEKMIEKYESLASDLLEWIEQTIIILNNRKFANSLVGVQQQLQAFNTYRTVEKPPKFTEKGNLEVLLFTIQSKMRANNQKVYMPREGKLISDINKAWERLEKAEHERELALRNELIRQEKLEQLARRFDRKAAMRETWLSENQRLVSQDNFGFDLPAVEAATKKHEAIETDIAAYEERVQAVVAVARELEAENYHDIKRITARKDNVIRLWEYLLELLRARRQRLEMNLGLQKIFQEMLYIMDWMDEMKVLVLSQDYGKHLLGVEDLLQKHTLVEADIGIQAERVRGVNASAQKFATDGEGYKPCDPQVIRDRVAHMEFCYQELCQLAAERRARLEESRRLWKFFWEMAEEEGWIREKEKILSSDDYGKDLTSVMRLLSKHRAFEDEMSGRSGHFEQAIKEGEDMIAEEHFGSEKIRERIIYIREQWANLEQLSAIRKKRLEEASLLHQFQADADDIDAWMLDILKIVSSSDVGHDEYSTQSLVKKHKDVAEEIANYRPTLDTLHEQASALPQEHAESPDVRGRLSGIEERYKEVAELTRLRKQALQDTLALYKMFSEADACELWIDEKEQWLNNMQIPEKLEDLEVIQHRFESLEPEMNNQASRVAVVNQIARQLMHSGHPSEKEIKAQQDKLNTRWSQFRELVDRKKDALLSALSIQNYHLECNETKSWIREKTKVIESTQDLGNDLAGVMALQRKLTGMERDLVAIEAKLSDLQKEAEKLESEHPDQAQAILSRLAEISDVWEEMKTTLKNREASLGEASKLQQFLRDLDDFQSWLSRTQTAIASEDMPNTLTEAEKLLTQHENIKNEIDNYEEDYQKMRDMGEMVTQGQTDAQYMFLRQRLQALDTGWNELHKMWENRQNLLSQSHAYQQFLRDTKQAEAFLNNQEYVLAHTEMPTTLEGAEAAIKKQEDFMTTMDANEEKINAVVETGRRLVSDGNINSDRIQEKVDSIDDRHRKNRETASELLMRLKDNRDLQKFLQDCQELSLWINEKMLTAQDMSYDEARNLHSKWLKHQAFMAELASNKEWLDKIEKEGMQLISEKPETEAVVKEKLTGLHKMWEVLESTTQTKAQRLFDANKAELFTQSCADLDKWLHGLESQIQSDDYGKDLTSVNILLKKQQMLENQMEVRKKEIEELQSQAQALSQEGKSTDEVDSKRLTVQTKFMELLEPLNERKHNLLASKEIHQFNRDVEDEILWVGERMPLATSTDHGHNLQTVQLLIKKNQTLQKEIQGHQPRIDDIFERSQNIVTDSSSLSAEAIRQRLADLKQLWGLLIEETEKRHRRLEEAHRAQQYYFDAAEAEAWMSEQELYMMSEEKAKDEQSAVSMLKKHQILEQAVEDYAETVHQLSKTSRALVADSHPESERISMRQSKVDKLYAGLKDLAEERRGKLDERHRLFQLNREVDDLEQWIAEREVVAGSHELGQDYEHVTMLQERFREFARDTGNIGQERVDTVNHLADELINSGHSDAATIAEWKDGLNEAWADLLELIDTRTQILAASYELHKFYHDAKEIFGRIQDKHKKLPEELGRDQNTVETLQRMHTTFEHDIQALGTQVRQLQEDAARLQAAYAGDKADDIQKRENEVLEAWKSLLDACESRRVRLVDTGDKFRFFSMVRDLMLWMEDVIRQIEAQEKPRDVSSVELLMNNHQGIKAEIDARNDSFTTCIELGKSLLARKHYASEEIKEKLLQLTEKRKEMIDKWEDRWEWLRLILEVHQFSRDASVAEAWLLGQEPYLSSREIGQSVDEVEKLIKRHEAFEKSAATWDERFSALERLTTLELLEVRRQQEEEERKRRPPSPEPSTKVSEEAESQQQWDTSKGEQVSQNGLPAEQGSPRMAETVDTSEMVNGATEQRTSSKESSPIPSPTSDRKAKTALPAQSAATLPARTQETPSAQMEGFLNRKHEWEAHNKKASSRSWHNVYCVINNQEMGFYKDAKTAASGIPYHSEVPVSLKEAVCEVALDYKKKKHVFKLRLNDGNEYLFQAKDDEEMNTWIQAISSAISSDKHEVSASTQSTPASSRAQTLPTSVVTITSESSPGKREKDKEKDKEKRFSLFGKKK
UniProt Q13242, whole entry, looked up: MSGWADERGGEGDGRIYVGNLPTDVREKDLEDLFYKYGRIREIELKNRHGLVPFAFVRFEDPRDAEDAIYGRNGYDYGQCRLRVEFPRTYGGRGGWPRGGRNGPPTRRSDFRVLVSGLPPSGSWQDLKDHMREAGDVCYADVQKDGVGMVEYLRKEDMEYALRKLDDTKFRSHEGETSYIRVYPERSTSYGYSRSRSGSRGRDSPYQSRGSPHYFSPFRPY
UniProt P16150: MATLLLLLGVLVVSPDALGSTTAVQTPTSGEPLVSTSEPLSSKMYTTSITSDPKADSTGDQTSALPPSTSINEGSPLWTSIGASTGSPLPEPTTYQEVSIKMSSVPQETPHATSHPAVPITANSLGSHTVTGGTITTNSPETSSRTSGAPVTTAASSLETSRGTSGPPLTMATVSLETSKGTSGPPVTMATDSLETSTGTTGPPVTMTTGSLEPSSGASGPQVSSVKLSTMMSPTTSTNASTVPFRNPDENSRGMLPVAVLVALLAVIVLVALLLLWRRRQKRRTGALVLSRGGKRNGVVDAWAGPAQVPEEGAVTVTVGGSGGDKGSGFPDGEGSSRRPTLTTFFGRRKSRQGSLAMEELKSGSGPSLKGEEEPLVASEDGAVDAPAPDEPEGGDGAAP
UniProt Q9BRL6: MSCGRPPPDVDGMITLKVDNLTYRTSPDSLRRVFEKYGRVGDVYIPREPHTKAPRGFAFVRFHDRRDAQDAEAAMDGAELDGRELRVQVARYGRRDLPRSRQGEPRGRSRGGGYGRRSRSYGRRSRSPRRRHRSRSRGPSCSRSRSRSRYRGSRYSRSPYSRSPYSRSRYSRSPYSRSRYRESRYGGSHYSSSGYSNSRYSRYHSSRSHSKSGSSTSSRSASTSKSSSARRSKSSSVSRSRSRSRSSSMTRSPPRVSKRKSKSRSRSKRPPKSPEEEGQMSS
UniProt Q9BVQ7: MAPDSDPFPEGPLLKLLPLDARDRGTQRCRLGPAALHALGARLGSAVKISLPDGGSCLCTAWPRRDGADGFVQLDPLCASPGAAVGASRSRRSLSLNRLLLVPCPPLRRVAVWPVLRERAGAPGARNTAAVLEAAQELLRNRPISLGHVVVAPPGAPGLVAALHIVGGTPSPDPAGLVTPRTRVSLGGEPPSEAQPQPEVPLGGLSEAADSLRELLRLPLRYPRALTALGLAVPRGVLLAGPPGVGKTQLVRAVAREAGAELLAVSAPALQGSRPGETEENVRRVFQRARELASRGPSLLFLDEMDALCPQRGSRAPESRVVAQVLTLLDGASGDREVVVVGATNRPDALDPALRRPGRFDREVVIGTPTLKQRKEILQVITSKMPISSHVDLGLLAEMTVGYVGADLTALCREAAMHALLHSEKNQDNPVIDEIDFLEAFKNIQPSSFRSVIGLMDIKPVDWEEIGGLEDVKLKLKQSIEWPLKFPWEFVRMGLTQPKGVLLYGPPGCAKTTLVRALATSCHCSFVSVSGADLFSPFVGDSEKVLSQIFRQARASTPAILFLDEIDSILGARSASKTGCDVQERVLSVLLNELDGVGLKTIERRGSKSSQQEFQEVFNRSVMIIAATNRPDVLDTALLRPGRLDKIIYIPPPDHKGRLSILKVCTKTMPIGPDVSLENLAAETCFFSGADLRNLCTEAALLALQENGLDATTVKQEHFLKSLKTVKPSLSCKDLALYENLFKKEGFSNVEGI
UniProt P15907: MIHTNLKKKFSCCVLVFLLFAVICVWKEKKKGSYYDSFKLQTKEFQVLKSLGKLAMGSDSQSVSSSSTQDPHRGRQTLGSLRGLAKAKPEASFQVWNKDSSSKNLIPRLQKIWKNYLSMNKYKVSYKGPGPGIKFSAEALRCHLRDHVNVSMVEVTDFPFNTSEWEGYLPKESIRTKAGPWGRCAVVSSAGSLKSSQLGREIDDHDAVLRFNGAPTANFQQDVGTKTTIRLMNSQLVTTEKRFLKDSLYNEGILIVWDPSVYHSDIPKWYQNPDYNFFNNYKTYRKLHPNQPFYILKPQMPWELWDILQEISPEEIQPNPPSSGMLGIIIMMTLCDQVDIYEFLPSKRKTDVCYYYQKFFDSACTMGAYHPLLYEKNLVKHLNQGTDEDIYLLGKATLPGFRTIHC
UniProt Q12772: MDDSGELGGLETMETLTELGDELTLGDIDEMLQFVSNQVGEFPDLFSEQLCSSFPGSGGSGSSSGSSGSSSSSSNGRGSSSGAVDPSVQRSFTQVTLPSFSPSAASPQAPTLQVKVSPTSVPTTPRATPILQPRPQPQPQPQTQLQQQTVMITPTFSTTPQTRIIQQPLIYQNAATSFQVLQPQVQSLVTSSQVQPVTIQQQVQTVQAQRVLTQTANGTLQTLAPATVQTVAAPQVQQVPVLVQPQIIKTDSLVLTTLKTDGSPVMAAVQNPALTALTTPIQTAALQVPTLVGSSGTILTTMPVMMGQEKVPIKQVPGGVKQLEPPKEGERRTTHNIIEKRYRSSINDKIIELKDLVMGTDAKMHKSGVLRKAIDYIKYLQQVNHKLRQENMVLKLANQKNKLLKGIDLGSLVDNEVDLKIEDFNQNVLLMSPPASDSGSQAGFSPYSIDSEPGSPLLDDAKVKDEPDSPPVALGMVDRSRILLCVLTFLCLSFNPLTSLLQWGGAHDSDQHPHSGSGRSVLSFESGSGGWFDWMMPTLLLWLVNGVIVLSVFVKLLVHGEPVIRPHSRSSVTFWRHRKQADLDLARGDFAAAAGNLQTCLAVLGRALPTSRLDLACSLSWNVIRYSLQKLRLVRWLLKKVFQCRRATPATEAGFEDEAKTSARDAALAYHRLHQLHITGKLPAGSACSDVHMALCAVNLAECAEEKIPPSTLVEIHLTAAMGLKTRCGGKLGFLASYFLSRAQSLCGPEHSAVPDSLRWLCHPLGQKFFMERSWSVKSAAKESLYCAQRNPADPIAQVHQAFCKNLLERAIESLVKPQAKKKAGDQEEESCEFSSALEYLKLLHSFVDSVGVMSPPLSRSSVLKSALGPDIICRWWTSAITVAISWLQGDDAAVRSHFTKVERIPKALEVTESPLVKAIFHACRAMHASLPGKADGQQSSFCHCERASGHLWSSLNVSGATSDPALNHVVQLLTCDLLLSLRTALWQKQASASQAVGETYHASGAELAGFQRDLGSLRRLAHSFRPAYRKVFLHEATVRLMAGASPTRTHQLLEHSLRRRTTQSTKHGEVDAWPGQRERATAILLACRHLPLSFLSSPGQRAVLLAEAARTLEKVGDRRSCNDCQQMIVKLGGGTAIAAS
UniProt Q9NYA1, whole entry, looked up: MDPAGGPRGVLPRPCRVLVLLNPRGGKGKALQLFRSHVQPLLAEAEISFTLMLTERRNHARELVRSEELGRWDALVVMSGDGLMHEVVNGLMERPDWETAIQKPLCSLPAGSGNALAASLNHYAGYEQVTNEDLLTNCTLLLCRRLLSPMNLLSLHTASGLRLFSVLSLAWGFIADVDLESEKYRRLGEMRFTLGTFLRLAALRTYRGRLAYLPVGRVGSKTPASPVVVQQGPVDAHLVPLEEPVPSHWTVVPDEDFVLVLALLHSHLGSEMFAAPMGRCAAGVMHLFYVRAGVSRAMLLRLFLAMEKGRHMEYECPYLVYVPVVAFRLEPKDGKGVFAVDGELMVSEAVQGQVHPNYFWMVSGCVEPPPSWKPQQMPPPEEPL
UniProt Q14534: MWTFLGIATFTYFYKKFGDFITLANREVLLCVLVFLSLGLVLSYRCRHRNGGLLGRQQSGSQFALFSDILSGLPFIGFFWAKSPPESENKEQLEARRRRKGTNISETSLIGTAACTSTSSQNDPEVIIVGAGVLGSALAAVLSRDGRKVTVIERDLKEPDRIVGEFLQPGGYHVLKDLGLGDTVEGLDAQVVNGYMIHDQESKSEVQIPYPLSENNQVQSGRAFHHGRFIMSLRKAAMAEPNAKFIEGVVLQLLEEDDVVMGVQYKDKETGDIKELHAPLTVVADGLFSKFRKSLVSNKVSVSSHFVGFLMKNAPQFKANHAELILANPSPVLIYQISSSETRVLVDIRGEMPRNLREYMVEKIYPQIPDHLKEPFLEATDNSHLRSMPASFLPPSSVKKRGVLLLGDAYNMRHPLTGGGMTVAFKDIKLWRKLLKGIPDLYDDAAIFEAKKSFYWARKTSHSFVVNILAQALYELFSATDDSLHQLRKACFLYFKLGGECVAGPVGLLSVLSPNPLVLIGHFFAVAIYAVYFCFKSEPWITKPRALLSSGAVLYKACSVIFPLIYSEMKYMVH

How the values were obtained:
Assay in all cases: log2 fold change, soluble protein after heating vs DMSO (PISA); higher = thermal stabilisation; K562 lysate, 10 uM; active = over 0.2 and 3.5 SD of the protein, either way, in both replicates (recomputed)
[1] = compound: CS(=O)(=O)CCNCc1ccc(-c2ccc3ncnc(Nc4ccc(OCc5cccc(F)c5)c(Cl)c4)c3c2)o1 [lapatinib]
How it was run: (§1)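 Values give the log-two fold change in thermal stability against solvent controls, from duplicates. Crude K562 extract at 1 mg/mL protein, made by dounce homogenisation in PBS pH 7.4 with 1 mM MgCl2, was treated with 10 μM compound for 30 min. After 3 min heating across 48°C-58°C, aliquots were pooled, adjusted to 0.5% NP-40 at 4°C and centrifuged at 21,000xg for 90 min. The supernatant was measured by TMTpro 16plex LC-MS/MS with channel sums equalised.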

[2] = compound: CS(=O)(=O)N1CCN(Cc2cc3nc(-c4cccc5[nH]ncc45)nc(N4CCOCC4)c3s2)CC1 [pictilisib]
How it was run: as §1

[3] = compound: C[C@@H](Oc1cc(-c2cnn(C3CCNCC3)c2)cnc1N)c1c(Cl)ccc(F)c1Cl [crizotinib]
How it was run: as §1

[4] = compound: C[C@H](C1=CC=C(C=C1)C(=O)NC2=C3C=CNC3=NC=C2)N
How it was run: as §1

[5] = compound: C[C@H](Nc1ncnc2nc[nH]c12)c1cc2cccc(Cl)c2c(=O)n1-c1ccccc1 [duvelisib]
How it was run: as §1

[6] = compound: Cc1cc(Nc2cc(CN3CCOCC3)c3nc(C)c(Cc4ccc(Cl)cc4F)n3n2)n[nH]1 [gandotinib]
How it was run: as §1

[7] = compound: Cc1cc(Nc2cc(N3CCN(C)CC3)nc(Sc3ccc(NC(=O)C4CC4)cc3)n2)n[nH]1 [tozasertib]
How it was run: as §1

[8] = compound: Cc1ccc(-n2nc(C(C)(C)C)cc2NC(=O)Nc2ccc(OCCN3CCOCC3)c3ccccc23)cc1 [doramapimod]
How it was run: as §1

[9] = compound: Cc1ccc(NC(=O)c2ccc(CN3CC[C@H](N(C)C)C3)c(C(F)(F)F)c2)cc1Nc1nccc(-c2cncnc2)n1 [bafetinib]
How it was run: as §1

[10] = compound: Cc1cccc(CC(=O)N2CCc3c2ccc(-c2cn(C)c4ncnc(N)c24)c3F)n1
How it was run: as §1

[11] = compound: Cc1cn(-c2cc(NC(=O)c3ccc(C)c(Nc4nccc(-c5cccnc5)n4)c3)cc(C(F)(F)F)c2)cn1 [nilotinib]
How it was run: as §1

[12] = compound: Cc1nc(Nc2n[nH]c3c2CN(C(=O)N[C@H](CN(C)C)c2ccccc2)C3(C)C)c2sccc2n1
How it was run: as §1

[13] = compound: Cc1nc(Nc2ncc(C(=O)Nc3c(C)cccc3Cl)s2)cc(N2CCN(CCO)CC2)n1 [dasatinib]
How it was run: as §1

[14] = compound: Cc1ncc(-c2ccnc(Nc3ccc(S(C)(=O)=O)cc3)n2)n1C(C)C
How it was run: as §1

[15] = compound: Cn1cc(-c2ccc3c(c2)CCN3C(=O)Cc2cccc(C(F)(F)F)c2)c2c(N)ncnc21
How it was run: as §1

[16] = compound: Cn1cc(CNCC2CCN(c3ncc(C(=O)NO)cn3)CC2)c2ccccc21 [quisinostat]
How it was run: as §1

[17] = compound: Cn1cncc1[C@@](N)(c1ccc(Cl)cc1)c1ccc2c(c1)c(-c1cccc(Cl)c1)cc(=O)n2C [tipifarnib]
How it was run: as §1

[18] = compound: NC(=O)Nc1cc(-c2cccc(F)c2)sc1C(=O)N[C@H]1CCCNC1
How it was run: as §1

[19] = compound: NC(=O)c1cnc(N[C@@H]2CCCC[C@@H]2N)nc1Nc1cccc(-n2nccn2)c1
How it was run: as §1

[20] = compound: NC1(c2ccc(-c3nc4ccn5c(=O)[nH]nc5c4cc3-c3ccccc3)cc2)CCC1
How it was run: as §1

Measured: log2 fold change

SPTBN1 (UniProt Q01082)
inactive: [1] -0.011 | [2] -0.025 | [3] -0.006 | [4] 0.001 | [5] -0.011 | [6] -0.02 | [7] 0.004 | [8] -0.005 | [9] -0.027 | [10] 0.008 | [11] 0.002 | [12] -0.008 | [13] 0.013 | [14] 0.008 | [15] 0.006 | [16] -0.014 | [17] -0.006 | [18] 0.013 | [19] 0 | [20] -0.021

STAU2 (UniProt Q9NUL3)
inactive: [1] -0.022 | [2] -0.019 | [3] -0.131 | [4] 0.054 | [5] 0.05 | [6] 0.005 | [7] -0.009 | [8] 0.023 | [9] -0.052 | [10] 0.03 | [11] 0.004 | [12] -0.005 | [13] -0.005 | [14] 0.027 | [15] 0.027 | [16] -0.171 | [17] -0.03 | [18] 0.065 | [19] 0.003 | [20] -0.08

STARD10 (UniProt Q9Y365)
inactive: [1] 0 | [2] -0.036 | [3] -0.055 | [4] 0.077 | [5] -0.012 | [6] -0.185 | [7] -0.045 | [8] -0.049 | [9] -0.044 | [10] -0.09 | [11] 0.004 | [12] -0.006 | [13] 0.015 | [14] 0.033 | [15] -0.002 | [16] 0.041 | [17] -0.092 | [18] 0.035 | [19] 0.035 | [20] 0.014

STAM2 (UniProt O75886)
inactive: [1] 0.032 | [2] -0.021 | [3] -0.008 | [4] 0.001 | [5] -0.018 | [6] 0.001 | [7] 0.012 | [8] 0.02 | [9] 0 | [10] 0.04 | [11] -0.008 | [12] 0.002 | [13] 0.02 | [14] 0.019 | [15] -0.03 | [16] 0.001 | [17] 0.021 | [18] 0.012 | [19] 0.012 | [20] -0.003

SPTBN2 (UniProt O15020)
inactive: [1] -0.01 | [2] -0.024 | [3] 0.017 | [4] -0.055 | [5] -0.017 | [6] 0.018 | [7] 0.005 | [8] 0.01 | [9] -0.053 | [10] 0.01 | [11] -0.043 | [12] -0.004 | [13] 0.02 | [14] 0.029 | [15] 0.014 | [16] 0.077 | [17] 0.073 | [18] 0.005 | [19] 0.007 | [20] 0.005

SRSF9 (UniProt Q13242)
inactive: [1] 0.014 | [2] 0.046 | [3] 0.006 | [4] -0.019 | [5] 0.011 | [6] -0.003 | [7] 0.019 | [8] 0.085 | [9] -0.028 | [10] 0.053 | [11] 0.02 | [12] 0.01 | [13] -0.079 | [14] 0.02 | [15] -0.005 | [16] 0.008 | [17] 0.047 | [18] -0.012 | [19] 0.029 | [20] -0.002

SPTLC2 (UniProt O15270)
inactive: [1] -0.026 | [2] 0.032 | [3] -0.014 | [4] -0.04 | [5] 0.041 | [6] 0.074 | [7] 0.015 | [8] 0.067 | [9] -0.085 | [10] 0.061 | [11] 0.027 | [12] -0.01 | [13] -0.007 | [14] 0.045 | [15] 0.045 | [16] -0.066 | [17] -0.06 | [18] -0.02 | [19] 0.008 | [20] -0.001

SPN (UniProt P16150)
inactive: [1] 0.017 | [2] -0.009 | [3] 0.034 | [4] 0.009 | [5] -0.026 | [6] 0.003 | [7] 0.034 | [8] -0.007 | [9] -0.033 | [10] -0.007 | [11] 0.007 | [12] 0.032 | [13] 0.007 | [14] 0.005 | [15] 0.008 | [16] -0.009 | [17] -0.028 | [18] 0.004 | [19] 0.007 | [20] -0.003

SRSF8 (UniProt Q9BRL6)
inactive: [1] -0.027 | [2] -0.01 | [3] 0.03 | [4] -0.145 | [5] 0.007 | [6] -0.055 | [7] 0.029 | [8] 0.017 | [9] -0.004 | [10] 0.113 | [11] 0 | [12] 0.031 | [13] 0.022 | [14] 0.018 | [15] 0.026 | [16] 0.02 | [17] -0.006 | [18] -0.012 | [19] 0.01 | [20] 0.003

SPATA5L1 (UniProt Q9BVQ7)
inactive: [1] -0.017 | [2] 0.011 | [3] -0.107 | [4] 0.016 | [5] 0.001 | [6] -0.076 | [7] 0.013 | [8] -0.035 | [9] -0.001 | [10] 0.049 | [11] -0.012 | [12] -0.003 | [13] -0.115 | [14] 0.016 | [15] 0.093 | [16] -0.059 | [17] 0.028 | [18] 0.047 | [19] 0.039 | [20] -0.092

ST6GAL1 (UniProt P15907)
inactive: [1] -0.012 | [2] -0.001 | [3] -0.044 | [4] -0.028 | [5] 0.008 | [6] -0.043 | [7] 0.047 | [8] 0.037 | [9] -0.005 | [10] 0.04 | [11] -0.084 | [12] -0.037 | [13] 0.028 | [14] 0.008 | [15] -0.012 | [16] -0.044 | [17] -0.027 | [18] 0.016 | [19] -0.03 | [20] -0.04

Reprinted at random: two entries already listed.
ST6GAL1 (UniProt P15907)
inactive: [1] -0.012 | [2] -0.001 | [3] -0.044 | [4] -0.028 | [5] 0.008 | [6] -0.043 | [7] 0.047 | [8] 0.037 | [9] -0.005 | [10] 0.04 | [11] -0.084 | [12] -0.037 | [13] 0.028 | [14] 0.008 | [15] -0.012 | [16] -0.044 | [17] -0.027 | [18] 0.016 | [19] -0.03 | [20] -0.04

SRSF8 (UniProt Q9BRL6)
inactive: [1] -0.027 | [2] -0.01 | [3] 0.03 | [4] -0.145 | [5] 0.007 | [6] -0.055 | [7] 0.029 | [8] 0.017 | [9] -0.004 | [10] 0.113 | [11] 0 | [12] 0.031 | [13] 0.022 | [14] 0.018 | [15] 0.026 | [16] 0.02 | [17] -0.006 | [18] -0.012 | [19] 0.01 | [20] 0.003

More results

SREK1 isoform 2 (UniProt Q8WXA9)
inactive: [1] 0.009 | [2] -0.016 | [3] -0.008 | [4] -0.059 | [5] -0.016 | [6] -0.048 | [7] -0.032 | [8] 0.006 | [9] 0.015 | [10] 0.041 | [11] 0.035 | [12] -0.018 | [13] -0.025 | [14] -0.007 | [15] 0.017 | [16] 0.011 | [17] 0.017 | [18] -0.021 | [19] 0.013 | [20] 0.022

SPPL2B (UniProt Q8TCT7)
inactive: [1] -0.068 | [2] -0.113 | [3] 0.028 | [4] -0.043 | [5] 0.081 | [6] 0.072 | [7] -0.01 | [8] -0.012 | [9] -0.045 | [10] -0.017 | [11] -0.002 | [12] -0.008 | [13] -0.038 | [14] 0.026 | [15] 0.022 | [16] -0.065 | [17] 0.004 | [18] 0.061 | [19] 0.015 | [20] 0.048

SREBF2 (UniProt Q12772)
inactive: [1] -0.033 | [2] -0.025 | [3] -0.013 | [4] -0.121 | [5] 0.122 | [6] 0.08 | [7] 0.043 | [8] 0.065 | [9] 0.008 | [10] 0.179 | [11] 0.022 | [12] 0.005 | [13] -0.192 | [14] -0.008 | [15] -0.039 | [16] -0.078 | [17] -0.003 | [18] -0.05 | [19] -0.017 | [20] 0.005

SPHK1 isoform 2 (UniProt Q9NYA1)
inactive: [1] -0.039 | [2] 0.001 | [3] -0.018 | [4] -0.028 | [5] 0.013 | [6] 0.033 | [7] 0.122 | [8] 0.073 | [9] -0.007 | [10] -0.041 | [11] 0.03 | [12] -0.034 | [13] -0.007 | [14] -0.071 | [15] 0.025 | [16] 0.084 | [17] -0.058 | [18] -0.028 | [19] -0.005 | [20] 0.052

SQLE (UniProt Q14534)
inactive: [1] -0.056 | [2] -0.04 | [3] -0.057 | [4] -0.025 | [5] -0.057 | [6] -0.028 | [7] 0.068 | [8] -0.035 | [9] -0.047 | [10] 0.031 | [11] 0.082 | [12] 0.014 | [13] -0.09 | [14] -0.039 | [15] 0.024 | [16] 0.191 | [17] 0.018 | [18] -0.014 | [19] -0.032 | [20] -0.034
